PubChem BioAssay AID1508597 – Cure First, 2020
This is an unselected part of the about 2,100 reagents, under one of the conditions tested. 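Calls flag viability under 80% in either arm, not effects specific to rucaparib; the reference for percent is not stated.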 Unmarked entries are inactive. No sequences are given here. The record does not give: the 100% reference.

Assay: 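Knock-downs altering ovarian cancer cell survival with or without PARP inhibitor rucaparib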 (primary screen)
Cells: human ovarian carcinoma lines grown from tumours: OCI-P5x (papillary serous) and OCI-C5x (clear cell)
Knock-down reagent: siRNA pool against human genes, 1.25 pmol siRNA per well
Time to read-out: 72 h or 96 h, depending on the cell culture
Challenge: rucaparib 20 µM (about IC30) or vehicle, present until read-out
Rucaparib or vehicle: Rucaparib
Cell line: OCI-P5x (serous)
Read-out: 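ATP luminescence measured at 72 or 96 h according to the culture, then normalised and expressed as percent viability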
Direction: viability, normalised: higher = more viable cells remaining
Call rule: 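a well counts as a hit if its normalised viability is under 80 percent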
Calls: active = viability under 80%; inactive = viability 80% or more

SNAI1, technical replicate 1
- viability, normalised (%): 64 (active)

SNAI1, technical replicate 2
- viability, normalised (%): 57.6 (active)

SNAI1, technical replicate 3
- viability, normalised (%): 78.3 (active)

DDX18, technical replicate 1
- viability, normalised (%): 56.7 (active)

DDX18, technical replicate 2
- viability, normalised (%): 70.5 (active)

DDX18, technical replicate 3
- viability, normalised (%): 67.9 (active)

SRMS, technical replicate 1
- viability, normalised (%): 87

SRMS, technical replicate 2
- viability, normalised (%): 117

SRMS, technical replicate 3
- viability, normalised (%): 93.7

MARK4, technical replicate 1
- viability, normalised (%): 79.3 (active)

MARK4, technical replicate 2
- viability, normalised (%): 82.1

MARK4, technical replicate 3
- viability, normalised (%): 86.3

SIRT7, technical replicate 1
- viability, normalised (%): 37.5 (active)

SIRT7, technical replicate 2
- viability, normalised (%): 44.6 (active)

SIRT7, technical replicate 3
- viability, normalised (%): 47.8 (active)

SMYD2, technical replicate 1
- viability, normalised (%): 55.8 (active)

SMYD2, technical replicate 2
- viability, normalised (%): 54.7 (active)

SMYD2, technical replicate 3
- viability, normalised (%): 65.3 (active)

CDT1, technical replicate 1
- viability, normalised (%): 80.4

CDT1, technical replicate 2
- viability, normalised (%): 83.9

CDT1, technical replicate 3
- viability, normalised (%): 65.6 (active)
